Each structure is given as a SMILES string. The list is a part of this screen's results and no random one: it gathers tests that were run many times, whatever their T/C, doses with no T/C, and many T/C values between a quarter and a half above the control. Further doses and runs are listed elsewhere. T/C: endpoint of the treated group in % of that of the vehicle group. Some doses have a count of surviving animals in place of a T/C: the source holds a T/C of zero for them, seemingly a mark for toxic or unscored doses. Some survivor counts are full or nearly so, which does not show that the dose was tolerated: survival well below the control is almost never listed, so the zero probably covers shortened survival too. Survivors were counted at the toxicity check, usually on the fifth day, unless a day is given; later deaths do not show. Schedules are NCI's codes, read here as Q, the interval in days (D) or hours (H), X, the number of doses. Some entries were tested several times; the results are listed from low to high. Additions like (4×) say how often a value occurs here. For survival time, this PubChem deposit counts one and a half times the control or more as active, and values a quarter to a half above the control carry no call in these data; other NCI protocols may use other cut-offs. Some T/C values carry the count of animals alive at the toxicity check (mostly the fifth day); where none is given, no animal had died by that day.

For the assay, the system named is P388 leukemia ip, CD2F1 mice, survival T/C. The experiment in a line: NCI In Vivo Anticancer Drug Screen. Data for tumor model P388 Leukemia (intraperitoneal) in CD2F1 (CDF1) mice. Particulars: T/C endpoint: median survival time, higher T/C = longer survival.
Setting [1] is: dose: 25.0 mg/kg/injection, schedule: Q01DX009 (ip), vehicle: saline with Tween-80.
Where [2] appears, read: dose: 50.0 mg/kg/injection, schedule: Q01DX009 (ip), vehicle: saline with Tween-80.
Where [3] appears, read: dose: 100.0 mg/kg/injection, schedule: Q01DX009 (ip), vehicle: saline with Tween-80.
[4] abbreviates: dose: 200.0 mg/kg/injection, schedule: Q01DX009 (ip), vehicle: saline with Tween-80.
The mark [5] stands for this setting: dose: 200.0 mg/kg/injection, schedule: Q01DX005 (ip), vehicle: Klucel (hydroxypropylcellulose) (HPC).
Where [6] appears, read: dose: 240.0 mg/kg/injection, schedule: Q01DX005 (ip), vehicle: Klucel (hydroxypropylcellulose) (HPC).
Setting [7] is: dose: 12.5 mg/kg/injection, schedule: Q01DX009 (ip), vehicle: saline with Tween-80.
[8] abbreviates: dose: 50.0 mg/kg/injection, schedule: Q04DX003 (ip), vehicle: water.

Consider `CC1=C(C#N)C(C)(C)C(C#N)=C(C)N1`, for which the survivor count by setting is: (dose: 100.0 mg/kg/injection, schedule: Q01DX009 (ip), vehicle: other) 5 of 6; (dose: 200.0 mg/kg/injection, schedule: Q01DX009 (ip), vehicle: other) 0 of 6; (dose: 400.0 mg/kg/injection, schedule: Q01DX009 (ip), vehicle: other) 0 of 6.
On to `O=S(=O)(F)c1ncc2[nH]cnc2n1`, for which, for the setting “dose: 200.0 mg/kg/injection, schedule: Q01DX005 (ip), vehicle: saline with Tween-80”, the survivor count is reported as 0 of 6.
Turning to `Nc1cccc(CCCCc2ccccc2)c1`, the survivor count (dose: 400.0 mg/kg/injection, schedule: Q04DX002 (ip), vehicle: saline) is 1 of 6.
In the case of `O=C(Nc1ccc(N(CCCl)CCCl)cc1)Oc1ccc(C(=O)O)cc1`, under setting [1], the T/C is 133 % of control. In addition, the survivor count was 4 of 6 under setting [2], 0 of 6 under setting [3] and 0 of 6 under setting [4].
`[Cl][Mo]([Cl])([Cl])[Cl].[Cl][Mo]([Cl])([Cl])[Cl]`: under “dose: 200.0 mg/kg/injection, schedule: Q01DX009 (ip), vehicle: saline”, the survivor count is 5 of 6.
`S=c1cc(S)sc2c1c(=S)sc1nc3ccccn3c(=S)c12`: the survivor count reads like this: (dose: 50.0 mg/kg/injection, schedule: Q01DX005 (ip), vehicle: Klucel (hydroxypropylcellulose) (HPC)) 2 of 6; under setting [5], 2 of 6.
As to `CC(=O)CCC1=C(C)C(=O)C(=O)C(C)=C1O`, under setting [6], the survivor count is given as 0 of 6.
`CC(C)c1ccc2nc3ccc(C(=O)NCCN(C)C)cn3c(=O)c2c1`: under setting [6], the survivor count is 2 of 6.
Consider `CCN(CC)CCOC(=O)C(OCCCc1ccccc1)(c1ccccc1)c1ccccc1`, for which the survivor count under setting [5] was 4 of 6.
In the case of `CN(c1ccccc1)c1c2c(oc(=O)c1Cl)-c1ccccc1SC2`, the survivor count is, setting by setting: under setting [7], 6 of 6; under setting [2], 6 of 6; under setting [3], 6 of 6.
Take `CN(C)CCC(=O)C(=Cc1c(Cl)cccc1Cl)C(=O)CCN(C)C`: the T/C was 129 % of control (dose: 3.75 mg/kg/injection, schedule: Q01DX005 (ip), vehicle: saline); 127 and 131 % of control (dose: 30.0 mg/kg/injection, schedule: Q01DX005 (ip), vehicle: saline). The survivor count reads like this: (dose: 60.0 mg/kg/injection, schedule: Q01DX005 (ip), vehicle: saline) 0 of 6 and 1 of 6; (dose: 120.0 mg/kg/injection, schedule: Q01DX005 (ip), vehicle: saline) 0 of 6; (dose: 240.0 mg/kg/injection, schedule: Q01DX005 (ip), vehicle: saline) 0 of 6.
Take `CC(C)C1(c2ccsc2)NC(=O)NC1=O` (stereo unspecified): under “dose: 400.0 mg/kg/injection, schedule: Q01DX009 (ip), vehicle: Klucel (hydroxypropylcellulose) (HPC)”, the survivor count is 1 of 6.
For `COC(=N)CCSSCCC(=N)OC`, the survivor count (dose: 200.0 mg/kg/injection, schedule: Q01DX009 (ip), vehicle: suspension in saline) is 0 of 6 and the survivor count (dose: 400.0 mg/kg/injection, schedule: Q01DX009 (ip), vehicle: suspension in saline) is 0 of 6.
As to `O=C(CNC(=O)NCc1ccco1)N/N=C/c1ccccc1O`, under setting [4], the survivor count was 4 of 6.
In the case of `CCCCCCC(/C=C/c1ccc(Cl)c(Cl)c1)=N\Nc1ccccc1`, the survivor count by setting is: under setting [2], 6 of 6; under setting [3], 6 of 6; under setting [4], 6 of 6.
As for `CCCNC(=NC)c1ccc(NC(=O)c2ccc(C(=O)Nc3ccc(C(=NC)NCCC)cc3)cc2)cc1`, the T/C is, setting by setting: (dose: 8.0 mg/kg/injection, schedule: Q01DX010 (ip), vehicle: saline) 131 % of control; (dose: 12.0 mg/kg/injection, schedule: Q01DX010 (ip), vehicle: saline) 131 % of control.
On to `COC(=O)C1=C(C)NC(C)=C(C(=O)OC)C(N2C(=O)CCC2=O)C1` (stereo unspecified), for which the survivor count reads like this: under setting [7], 6 of 6; under setting [1], 6 of 6; under setting [2], 6 of 6; under setting [3], 6 of 6.
In the case of `N#[O+].O.O=N[O-].O=N[O-].O=N[O-].O=N[O-].[Ru]`, the T/C is 92, 104, 105, 125 % of control (dose: 12.5 mg/kg/injection, schedule: Q04DX003 (ip), vehicle: water); 105, 106, 116, 122 % of control (dose: 25.0 mg/kg/injection, schedule: Q04DX003 (ip), vehicle: water); 105 [5 of 6 alive], 112, 131 % of control under setting [8]. In addition, the survivor count under setting [8] was 6 of 6; the survivor count (dose: 100.0 mg/kg/injection, schedule: Q04DX003 (ip), vehicle: water) was 2 of 6 (2×) and 4 of 6; the survivor count (dose: 200.0 mg/kg/injection, schedule: Q04DX003 (ip), vehicle: water) is listed as 0 of 6.
As to `Cc1ccc(OCC2CO2)c(Br)c1` (stereo unspecified), for the setting “dose: 100.0 mg/kg/injection, schedule: Q01DX005 (ip), vehicle: saline with Tween-80”, the T/C was 130 % of control [2 of 2 alive].
Consider `CCNCc1c(C)nc2ccc(N(C)C)cc2c1Cl`, for which the survivor count is 1 of 6 under setting [2], 0 of 6 under setting [3] and 0 of 6 under setting [4].

The values above are taken from PubChem BioAssay AID330 (DTP/NCI, 2004).
